Measured data: PubChem BioAssay AID504774 (Drosophila RNAi Screening Center, 2011)

Assay: 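Fly genes whose loss alters survival after alkylation damage to DNA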 (primary screen)
System: Drosophila Kc167 cells
Reagent: long dsRNA against Drosophila genes, about 0.25 µg dsRNA per well
Timing: about 6 days: 3 days knock-down, then 3 days with or without MMS
Conditions: methyl methanesulphonate 0.004% (w/v) for 3 days after knock-down
Measurement: 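ATP-dependent luminescence as a measure of live cells in MMS-exposed wells, quantile normalised within each plate, with replicate values also given as a mean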
Direction: mean viability with MMS and viability with MMS: higher = more surviving cells after MMS
The screen tested about 23,000 reagents; shown is an unselected part of those with a known target gene and a result. 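Values are quantile-normalised luminescence on an arbitrary scale; higher means more cells surviving MMS.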 Names joined by + are all predicted targets of the reagent.

| Target gene | dsRNA | mean viability with MMS | viability with MMS, replicate 1 | viability with MMS, replicate 2 |
| --- | --- | --- | --- | --- |
| CG3748 (GeneID 34252) | DRSC02716 | 3.48e6 | 3.69e6 | 4.21e6 |
| Hsc70-4 (GeneID 41840) | DRSC16711 | 3.11e6 | 3.55e6 | 3.58e6 |
| NPF (GeneID 42018) | DRSC17019 | 3.54e6 | 4.09e6 | 3.94e6 |
| Wdr81 (GeneID 34616) | DRSC02985 | 3.57e6 | 4.10e6 | 4.01e6 |
| CG5808 (GeneID 42957) | DRSC14124 | 3.42e6 | 3.86e6 | 3.89e6 |
| Polr1C (GeneID 33712) | DRSC02719 | 3.18e6 | 3.55e6 | 3.46e6 |
| Ibf1 (GeneID 41103) | DRSC16419 | 3.39e6 | 3.83e6 | 3.87e6 |
| CG12547 (GeneID 3355145) | DRSC07759 | 3.62e6 | 4.10e6 | 4.07e6 |
| CG3062 (GeneID 31396) | DRSC18572 | 3.75e6 | 4.22e6 | 4.29e6 |
| FIG4 (GeneID 33658) | DRSC00515 | 3.26e6 | 3.66e6 | 3.58e6 |
| CG7420 (GeneID 33332) | DRSC00704 | 3.57e6 | 3.80e6 | 4.29e6 |
| CG10651 (GeneID 35303) | DRSC02086 | 3.51e6 | 3.94e6 | 4.01e6 |
| CG7800 (GeneID 40963) | DRSC16315 | 3.68e6 | 4.10e6 | 4.21e6 |
| ms(3)K81 (GeneID 43232) | DRSC14746 | 3.40e6 | 3.70e6 | 3.94e6 |
| Dnaaf3 (GeneID 37125) | DRSC06684 | 3.69e6 | 4.12e6 | 4.21e6 |
| Lcp65Ad (GeneID 38707) | DRSC11211 | 3.65e6 | 4.11e6 | 4.18e6 |
| CG11109 (GeneID 40507) | DRSC11633 | 3.52e6 | 3.94e6 | 4.01e6 |
| Npc2a (GeneID 33374) | DRSC00698 | 3.45e6 | 3.90e6 | 3.90e6 |
| ort (GeneID 45910) | DRSC16240 | 3.62e6 | 4.22e6 | 3.98e6 |
| mst (GeneID 33119) | DRSC20582 | 3.54e6 | 4.10e6 | 3.95e6 |
| Cpr76Ba (GeneID 40120) | DRSC11060 | 3.45e6 | 3.88e6 | 3.92e6 |
| CG12517 (GeneID 34506) | DRSC02173 | 3.52e6 | 3.90e6 | 4.09e6 |
| Obp57c + Obp57b | DRSC21914 | 3.49e6 | 4.01e6 | 3.91e6 |
| Mapmodulin (GeneID 37043) | DRSC06956 | 3.61e6 | 4.16e6 | 4.04e6 |
| CG15147 (GeneID 35069) | DRSC02447 | 3.54e6 | 3.97e6 | 4.07e6 |
| CG15147 (GeneID 35069) | DRSC02448 | 3.48e6 | 4.01e6 | 3.89e6 |
| CG2444 (GeneID 32121) | DRSC19846 | 3.62e6 | 4.03e6 | 4.16e6 |
| PPO1 (GeneID 37044) | DRSC05929 | 3.62e6 | 4.02e6 | 4.20e6 |
| Cep135 (GeneID 39647) | DRSC09345 | 3.50e6 | 3.97e6 | 3.98e6 |
| Cep135 (GeneID 39647) | DRSC10244 | 3.68e6 | 4.19e6 | 4.09e6 |
| CG15471 (GeneID 31412) | DRSC18054 | 3.65e6 | 4.10e6 | 4.19e6 |
| Vha16-3 (GeneID 317846) | DRSC10872 | 3.49e6 | 3.90e6 | 4.00e6 |
| Mlp60A (GeneID 37853) | DRSC04623 | 3.46e6 | 3.92e6 | 3.91e6 |
| Mlp60A (GeneID 37853) | DRSC22233 | 3.23e6 | 3.79e6 | 3.83e6 |
| Mlp60A (GeneID 37853) | DRSC22481 | 3.63e6 | 4.09e6 | 4.09e6 |

Next part, starting with the last 6 of the part before.
| Target gene | dsRNA | mean viability with MMS | viability with MMS, replicate 1 | viability with MMS, replicate 2 |
| --- | --- | --- | --- | --- |
| Cep135 (GeneID 39647) | DRSC10244 | 3.68e6 | 4.19e6 | 4.09e6 |
| CG15471 (GeneID 31412) | DRSC18054 | 3.65e6 | 4.10e6 | 4.19e6 |
| Vha16-3 (GeneID 317846) | DRSC10872 | 3.49e6 | 3.90e6 | 4.00e6 |
| Mlp60A (GeneID 37853) | DRSC04623 | 3.46e6 | 3.92e6 | 3.91e6 |
| Mlp60A (GeneID 37853) | DRSC22233 | 3.23e6 | 3.79e6 | 3.83e6 |
| Mlp60A (GeneID 37853) | DRSC22481 | 3.63e6 | 4.09e6 | 4.09e6 |
| Pits (GeneID 32205) | DRSC19385 | 3.38e6 | 3.83e6 | 3.85e6 |
| Pits (GeneID 32205) | DRSC19812 | 3.61e6 | 3.97e6 | 4.18e6 |
| Dredd (GeneID 31011) | DRSC18461 | 3.49e6 | 3.99e6 | 3.93e6 |
| SmD3 (GeneID 36306) | DRSC07553 | 3.04e6 | 3.07e6 | 3.77e6 |
| CG5742 (GeneID 37072) | DRSC06949 | 3.64e6 | 4.17e6 | 4.10e6 |
| Cpr49Ae (GeneID 36351) | DRSC07201 | 3.48e6 | 3.90e6 | 3.98e6 |
| Ssl2 (GeneID 43424) | DRSC14395 | 3.53e6 | 4.06e6 | 3.92e6 |
| Ssl2 (GeneID 43424) | DRSC22796 | 3.50e6 | 4.02e6 | 3.95e6 |
| CG7140 (GeneID 40445) | DRSC11799 | 3.78e6 | 4.29e6 | 4.15e6 |
| PGRP-SC1b (GeneID 35861) | DRSC07215 | 3.58e6 | 4.10e6 | 4.03e6 |
| CG4239 (GeneID 32606) | DRSC19885 | 3.49e6 | 4.23e6 | 3.68e6 |
| ppk16 (GeneID 3885612) | DRSC02736 | 3.55e6 | 4.05e6 | 4.02e6 |
| CG10140 (GeneID 39511) | DRSC09704 | 3.56e6 | 3.97e6 | 4.10e6 |
| Rfx (GeneID 41266) | DRSC16820 | 3.55e6 | 4.03e6 | 4.01e6 |
| Hr3 (GeneID 36073) | DRSC06118 | 3.17e6 | 3.71e6 | 3.71e6 |
| Hr3 (GeneID 36073) | DRSC07441 | 3.67e6 | 4.12e6 | 4.21e6 |
| Mdr50 (GeneID 36582) | DRSC07467 | 3.30e6 | 3.77e6 | 4.06e6 |
| Acp26Ab (GeneID 33816) | DRSC01856 | 3.66e6 | 4.09e6 | 4.16e6 |
| CG4558 (GeneID 31631) | DRSC18369 | 3.59e6 | 3.70e6 | 4.20e6 |
| Exd2 (GeneID 41374) | DRSC16105 | 3.64e6 | 4.10e6 | 4.08e6 |
| CG15578 (GeneID 50379) | DRSC18066 | 3.50e6 | 4.29e6 | 3.67e6 |
| Axs (GeneID 32645) | DRSC19333 | 3.72e6 | 4.20e6 | 4.13e6 |
| CG9926 (GeneID 41700) | DRSC16582 | 3.67e6 | 4.15e6 | 4.19e6 |
| hdly (GeneID 42478) | DRSC15849 | 3.48e6 | 3.94e6 | 3.98e6 |
| row (GeneID 36685) | DRSC07076 | 3.18e6 | 3.70e6 | 3.69e6 |
| row (GeneID 36685) | DRSC07077 | 3.48e6 | 4.05e6 | 3.93e6 |
| CG8508 (GeneID 41620) | DRSC16436 | 3.69e6 | 4.12e6 | 4.26e6 |
| CG11570 (GeneID 39357) | DRSC09844 | 3.69e6 | 4.05e6 | 4.25e6 |
| CG15034 (GeneID 31670) | DRSC17966 | 3.55e6 | 4.14e6 | 3.94e6 |
| CG12540 (GeneID 32393) | DRSC19471 | 3.71e6 | 4.20e6 | 4.13e6 |
| Elp1 (GeneID 41399) | DRSC14250 | 3.59e6 | 4.12e6 | 4.05e6 |
| ICA69 (GeneID 40331) | DRSC11621 | 3.55e6 | 3.97e6 | 4.09e6 |
| mRpL30 (GeneID 31398) | DRSC18416 | 3.56e6 | 4.14e6 | 3.96e6 |
